# For at least one compound, name, drawing or mass did not settle the structure.
# Amino acid sequences for entries named in this document (tags omitted).
# UniProt P19327, whole entry: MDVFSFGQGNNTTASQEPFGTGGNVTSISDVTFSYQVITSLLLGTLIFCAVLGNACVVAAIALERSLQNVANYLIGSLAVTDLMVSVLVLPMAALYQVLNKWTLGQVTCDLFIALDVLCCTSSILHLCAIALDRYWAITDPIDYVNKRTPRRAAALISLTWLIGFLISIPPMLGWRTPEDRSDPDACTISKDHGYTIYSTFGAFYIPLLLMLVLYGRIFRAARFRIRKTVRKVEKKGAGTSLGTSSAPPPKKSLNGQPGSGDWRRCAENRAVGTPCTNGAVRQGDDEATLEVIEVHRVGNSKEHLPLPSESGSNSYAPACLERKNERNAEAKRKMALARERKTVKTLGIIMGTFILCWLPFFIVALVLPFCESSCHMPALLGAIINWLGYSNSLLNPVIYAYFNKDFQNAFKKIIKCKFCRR
# Target: 5-HT1A (Rattus norvegicus (Rat), UniProt P19327)
# Experiment: Ex vivo saturation binding of Compound E in rat brain regions
# Protocol: Ex vivo studies of compound E: Awake rats were injected in the tail vein with Compound E shown below:
# Total mass injected was between 0.02 nmol/kg and 500 nmol/kg. All rats were decapitated after 90 minutes, based on time activity experiments with Compound E. The brains were extracted and brain regions were dissected, and then dissolved in Solvable (Packard). Blood was collected, and the plasma was separated. Radioactivity concentrations were determined by scintillation counting.
# It was possible to saturate the 5-HT1A binding of Compound E in the frontal cortex and hippocampus. Data were best fitted with a one binding-site model. […] The cerebellum and plasma were unsaturable and no binding model could be fitted to the data.
structure (smiles),measurement,setting,value
[3H]COc1ccccc1N1CCN(CCCCn2ncc(=O)n(C)c2=O)CC1 [Compound E],Saturability of binding,cerebellum and plasma,unsaturable
same,Bmax,frontal cortex,98 fmol/mg
same,Bmax,hippocampus,131 fmol receptors/mg tissue (wet weight)

# — US9290463B2, “Radiolabeled compounds and uses thereof” (THE TRUSTEES OF COLUMBIA UNIVERSITY IN THE CITY OF NEW YORK, priority 2010, dated 2016)
